Experimental data as given in article PMC4712783.

The chains behind the UniProt entries cited, without tags or fusion partners. Where a name states a change or a piece, a line headed by the entry shows the natural chain unless it says otherwise.
UniProt Q9UNA1: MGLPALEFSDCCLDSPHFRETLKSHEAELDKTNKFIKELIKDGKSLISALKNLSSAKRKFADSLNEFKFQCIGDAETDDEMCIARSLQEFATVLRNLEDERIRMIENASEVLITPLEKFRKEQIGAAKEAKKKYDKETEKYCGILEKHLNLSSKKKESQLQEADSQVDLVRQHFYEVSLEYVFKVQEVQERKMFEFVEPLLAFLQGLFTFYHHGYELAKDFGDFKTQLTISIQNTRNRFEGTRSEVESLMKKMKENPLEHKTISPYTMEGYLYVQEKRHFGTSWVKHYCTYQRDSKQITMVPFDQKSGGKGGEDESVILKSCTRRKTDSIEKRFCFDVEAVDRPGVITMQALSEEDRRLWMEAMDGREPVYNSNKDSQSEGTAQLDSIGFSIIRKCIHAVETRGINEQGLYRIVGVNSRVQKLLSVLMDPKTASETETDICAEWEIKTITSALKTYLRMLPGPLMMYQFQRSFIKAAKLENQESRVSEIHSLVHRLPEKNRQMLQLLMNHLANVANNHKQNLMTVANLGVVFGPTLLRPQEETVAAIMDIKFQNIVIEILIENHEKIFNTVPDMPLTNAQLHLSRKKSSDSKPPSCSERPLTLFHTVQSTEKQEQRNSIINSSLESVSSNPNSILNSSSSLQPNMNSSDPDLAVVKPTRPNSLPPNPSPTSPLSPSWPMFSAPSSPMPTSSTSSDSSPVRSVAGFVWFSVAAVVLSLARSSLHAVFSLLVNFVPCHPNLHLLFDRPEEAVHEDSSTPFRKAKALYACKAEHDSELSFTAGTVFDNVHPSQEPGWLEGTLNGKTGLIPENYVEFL
UniProt P60953: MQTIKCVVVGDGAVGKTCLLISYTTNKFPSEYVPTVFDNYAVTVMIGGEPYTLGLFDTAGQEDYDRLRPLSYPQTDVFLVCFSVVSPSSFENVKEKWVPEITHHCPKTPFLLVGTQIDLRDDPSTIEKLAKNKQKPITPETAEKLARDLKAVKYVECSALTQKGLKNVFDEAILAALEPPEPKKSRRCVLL

How the values were obtained:
[1] = target: GST-tagged GRAF1 GAP domain (UniProt Q9UNA1); assay: pull-down; GST-tagged GAP domain on glutathione-Sepharose 4B beads as bait, purified Cdc42 proteins loaded with GDP in the presence of AlFx (1 mM AlCl3, 25 mM NaF) as prey; 1-3 h at 4°C under rotation; bound and unbound fractions on Coomassie-stained SDS-PAGE; both purified
[2] = target: GST-tagged GRAF1 GAP domain (UniProt Q9UNA1); assay: pull-down; GST-tagged GAP domain on glutathione-Sepharose 4B beads as bait, purified Cdc42 proteins loaded with GTPγS as prey; 1-3 h at 4°C under rotation; bound and unbound fractions on Coomassie-stained SDS-PAGE; both purified

binding [1] | binding [2] | Substance
binds |  | Cdc42 (wild type), purified (from UniProt P60953 1-191)
binds | binds | Cdc42-Q61L, purified (from UniProt P60953 1-191)

Results are given in words; binding and its absence hold for the method and conditions named. A result given as binding can be weak or reduced; the word gives no strength.
